Source: paper PMC9522268
These are yes or no findings as the source states them, for the method shown. Binding seen in cells or lysates may run through a third protein. A result given as binding can be weak or reduced; the word gives no strength. Where a sequence is shown, tags or fusion partners need not be part of it. Values belong to the molecule of their own block, whether it stands above or below them.

The chains behind the UniProt entries cited, without tags or fusion partners. Where a name states a change or a piece, a line headed by the entry shows the natural chain unless it says otherwise.
UniProt Q5PNS9: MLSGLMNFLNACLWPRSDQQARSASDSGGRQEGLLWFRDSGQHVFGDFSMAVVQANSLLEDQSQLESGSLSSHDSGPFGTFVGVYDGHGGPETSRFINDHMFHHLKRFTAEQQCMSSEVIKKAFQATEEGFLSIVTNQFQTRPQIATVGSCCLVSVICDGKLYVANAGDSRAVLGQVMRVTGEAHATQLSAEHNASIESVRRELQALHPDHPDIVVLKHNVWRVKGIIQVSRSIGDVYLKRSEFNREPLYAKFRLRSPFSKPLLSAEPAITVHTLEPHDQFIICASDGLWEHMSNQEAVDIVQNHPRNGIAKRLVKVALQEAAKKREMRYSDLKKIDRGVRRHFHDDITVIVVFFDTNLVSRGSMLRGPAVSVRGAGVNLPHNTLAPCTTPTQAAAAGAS

Columns and labels:
[1] = target: T1, SAUR63:YFP:HA fusion protein (Arabidopsis thaliana) (UniProt F4I1H5); assay: co-IP; microsomes of pooled F2 Arabidopsis seedlings solubilized in PBS + 1.5% Triton X-100; α-HA magnetic beads, 2h at 4°C; washed with PBS + 1% Triton-X-100; blots with α-GFP and α-HA
T1 sequence: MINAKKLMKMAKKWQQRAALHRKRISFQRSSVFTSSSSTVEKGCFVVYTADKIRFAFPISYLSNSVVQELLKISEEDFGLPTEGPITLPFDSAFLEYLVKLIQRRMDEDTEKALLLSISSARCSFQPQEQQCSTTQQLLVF

[2] = target: PP2C.D5 phosphatase split-YFP fusion for BiFC (Arabidopsis thaliana) (UniProt Q5PNS9); assay: split reporter; BiFC with YFP^N and YFP^C fusions in transiently transformed Nicotiana benthamiana leaf cells; confocal imaging of reconstituted yellow fluorescence

binding [1]: binds
Molecule: PP2C.D5:GFP fusion protein (Arabidopsis thaliana) (enzyme)

binding [2]: binds
B1: SAUR63 (Small Auxin Up RNA 63) split-YFP fusion for BiFC (protein, UniProt F4I1H5 1-141)
chain: T1 sequence
